Assay results as given in PubChem BioAssay AID493014 (National Center for Advancing Translational Sciences (NCATS), 2011).
This is one part of the list. These are further read-outs of the screen, such as a control signal, another cell line or another target. No call is given for them. Compounds called inactive in the main read-out are mostly missing here. Potencies come from curve fits of mixed quality, noted in brackets.

Assay: qHTS Assay to Find Inhibitors of Chronic Active B-Cell Receptor Signaling
Details: ABC-DLBCL IkBa-CBG/CBR reporter, luminescence ratio (green luciferase fused to IkBa over red control in TMD8 lymphoma cells), 4 h
Outline: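 TMD8 human ABC-DLBCL cells with doxycycline-inducible IκBα–green luciferase fusion and unfused red luciferase, in 0.5% FBS medium; compounds up to 46 uM, 4 h at 37C. Green/red luminescence ratio, filter-overlap corrected, fitted to concentration-response curves.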

[1] = measured here: CBR red luminescence, cell number
[2] = measured here: IkBa-CBG green luminescence

Row | SMILES | AC50 [1] | AC50 [2]
1 | COc1cc(C(=O)N/N=C/c2ccc(OC(=O)N3CCOCC3)cc2)cc(OC)c1OC | 23.1 µM [rising, partial curve] | –
2 | N#CC1=C(N)Oc2c(c(=O)oc3ccccc23)C1c1ccc([N+](=O)[O-])o1 (centres undefined) | 35.5 µM [falling, partial curve, poor fit] | –
3 | COc1ccccc1CCNC1CCC(C(C)(C)C)CC1 (centres undefined) | 35.5 µM [falling, single point] | –
4 | O=C(COC(=O)Cc1ccccc1)Nc1cc(S(=O)(=O)N2CCOCC2)ccc1N1CCCC1 | 20.6 µM [falling, single point] | 29.1 µM [rising, partial curve, poor fit]
5 | COc1ccc(-n2c(SC)nc3ccccc3c2=O)cc1 | 0.562 µM [rising, full curve, poor fit] | –
6 | O=c1c2ccccc2nc(N2CCCC2)n1-c1ccc(Cl)cc1 | 14.1 µM [falling, partial curve, poor fit] | –
7 | CCC1(CC)C(=O)C=CNC1=O | 25.9 µM [rising, partial curve, poor fit] | –
8 | CCN1/C(=C\C=C\C2=[N+](CC)c3ccccc3C2(C)C)C(C)(C)c2ccccc21 | – | 13 µM [rising, partial curve, poor fit]
9 | COc1ccc(C)cc1S(=O)(=O)N1CCCC(C(=O)N2CCN(c3ccccc3)CC2)C1 (centres undefined) | 22.4 µM [falling, single point] | –
10 | CC1CCC(C(C)C)C(OC(=O)Cn2c(COc3ccccc3)[n+](C)c3ccccc32)C1 (centres undefined) | 25.1 µM [falling, single point] | –
11 | CN(C)C(=O)Oc1ccc(Br)cc1C(=O)Nc1ccc(F)c(Cl)c1 | 2.51 µM [falling, partial curve] | –
12 | O=C1NC(=O)N(Cc2ccc(F)cc2)C(=O)/C1=C\c1ccc([N+](=O)[O-])s1 | 0.0891 µM [falling, full curve, poor fit] | –
13 | O=C(CN1CCOCC1)c1ccc2cc[nH]c2c1 | 23.1 µM [falling, single point] | –
14 | CC1CCCN(CC(=O)c2ccc(Cl)c(Cl)c2)C1 (centres undefined) | 0.501 µM [falling, full curve, poor fit] | –
15 | CCOc1cc2[nH]c(=S)n(CCCC(=O)N3CCC4(CC3)OCCO4)c(=O)c2cc1OCC | 13 µM [falling, partial curve, poor fit] | –
16 | O=C(OCC(=O)c1ccc([N+](=O)[O-])cc1)/C(=C\c1ccc(Cl)cc1)NC(=O)c1ccccc1 | 20 µM [falling, single point] | –
17 | COc1ccc(-n2c(Cc3cccc([N+](=O)[O-])c3)nc3ccccc3c2=O)cc1 | 20.6 µM [falling, partial curve, poor fit] | –
18 | COc1ccc(Cn2c(N)c(C(=O)NCc3ccco3)c3nc4ccccc4nc32)cc1OC | 7.08 µM [falling, partial curve, poor fit] | –
19 | Cn1cc(/C=C2\C(=O)NC(=O)N(c3ccccc3)C2=O)c2ccccc21 | 3.98 µM [rising, full curve, poor fit] | –
20 | COc1ccc(C(Nc2ccccc2)P(=O)(Oc2ccccc2)Oc2ccccc2)cc1 (centres undefined) | 4.11 µM [rising, single point] | –
21 | Cc1ccc(C)c(NC(=O)CN(C)C(=O)Cn2c(=O)oc3ccccc32)c1 | 20.6 µM [falling, single point] | –

Row | SMILES | AC50 [1] | AC50 [2]
22 | COC(=O)[C@@H](N)CCCN=C(N)N[N+](=O)[O-] | 35.5 µM [falling, partial curve, poor fit] | –
23 | O=C(Cc1ccccc1)NC(Cc1ccc(Cl)cc1)C(=O)O (centres undefined) | 5.62 µM [falling, partial curve, poor fit] | –
24 | C=CCN(CC=C)Cc1c[nH]c2ccccc12 | 35.5 µM [falling, single point] | –
25 | O=S(=O)(c1ccc(Cl)cc1)N1CN2CCN(C2)C1 | 0.206 µM [falling, full curve, poor fit] | –
26 | NNC(=O)c1ccc(O)cc1 | 1.46 µM [falling, full curve] | 4.61 µM [falling, partial curve]
27 | N#CCCn1cc(C(=O)Nc2ccc([N+](=O)[O-])cc2)c(-c2ccc3c(c2)OCCO3)n1 | – | 13 µM [falling, partial curve, poor fit]
28 | O=c1[nH]c(=S)n(CCC2=CCCCC2)c(O)c1C=NC1CCN(Cc2ccccc2)CC1 | 5.01 µM [rising, single point] | –
29 | O=C(Nc1cccc2ccccc12)N1CCC2(CC1)OCCO2 | 14.1 µM [falling, single point] | –
30 | COc1ccccc1-n1c(O)c(C=NCc2ccc3c(c2)OCO3)c(=O)[nH]c1=O | 0.291 µM [rising, full curve, poor fit] | –
31 | CCOCN(C(=O)CCl)c1c(C)cccc1CC | 20.6 µM [falling, partial curve, poor fit] | –
32 | O=C(NC1(C(F)(F)F)Oc2ccc(Cl)cc2O1)N1CCC2(CC1)OCCO2 (centres undefined) | 23.1 µM [rising, partial curve, poor fit] | –
33 | CC(C)(C)NCC(O)c1cc(Cl)c(N)c(Cl)c1 (centres undefined) | 29.1 µM [rising, single point] | –
34 | COC(=O)C1=C(c2ccc(Cl)c(C(F)(F)F)c2)C[C@@H]2CC[C@H]1N2C(=O)NCC1CC1 | 16.4 µM [falling, single point] | –
35 | Cc1ccc(CNc2nc(-c3cccnc3)nc3ccccc23)cc1 | 22.4 µM [falling, single point] | –
36 | O=P(O)(CP(=O)(c1ccccc1)c1ccccc1)c1ccccc1 | 20 µM [falling, partial curve] | –
37 | Cc1ccccc1-[n+]1c(-c2ccccc2)cc(-c2ccccc2)cc1-c1ccccc1 | 13 µM [falling, partial curve, poor fit] | –
38 | O=C(N/N=C/c1c(O)n(CCc2ccccc2)c(=O)[nH]c1=O)c1ccccc1 | 2.51 µM [falling, full curve, poor fit] | –
39 | CS(=O)(=O)NNP(=O)(NNS(C)(=O)=O)NC(=O)c1ccccc1 | 2 µM [falling, full curve] | –
40 | C=CCn1c(O)c(Cc2ccc(OCC)cc2)c(=O)[nH]c1=O | 35.5 µM [rising, single point] | –
41 | COc1ccc(S(=O)(=O)NCCc2sc3nc(-c4ccc(C)cc4)nn3c2C)cc1F | 11.2 µM [falling, single point] | –
42 | O=C(Cn1cc(C(=O)c2ccccc2)c2ccccc21)NCc1ccco1 | 15.8 µM [falling, partial curve, poor fit] | –

Row | SMILES | AC50 [1] | AC50 [2]
43 | CC(=O)c1ccccc1NC(=O)C1C2CCC(O2)C1C(=O)O (centres undefined) | 29.1 µM [rising, single point] | –
44 | Cc1c(C(c2ccc(Br)cc2)c2c(O)c3ccccc3oc2=O)c(=O)n(-c2ccccc2)n1C (centres undefined) | 11.2 µM [falling, partial curve, poor fit] | –
45 | COc1ccc(CN2CCc3ccc(NC(=O)CCc4ccccc4OC)cc3C2)c(O)c1 | 10 µM [falling, partial curve, poor fit] | –
46 | COC(=O)C1=C(c2ccccc2OCc2ccccc2)C[C@@H]2CC[C@H]1N2C(=O)NC1CCN(Cc2ccccc2)CC1 | 16.4 µM [falling, partial curve, poor fit] | –
47 | CCOP(=O)(OCC)C(NC(=O)Nc1ccc(Cl)cc1)C(N)=O (centres undefined) | 5.8 µM [rising, full curve] | –
48 | O=C(N/N=C\C1C(=O)NC(=S)N(c2ccccc2)C1=O)c1ccc(O)cc1 (centres undefined) | 0.794 µM [falling, full curve] | –
49 | COC(=O)C[C@]1(C(=O)OC)CN(C#N)N(c2ccc(Cl)cc2)C12c1ccccc1-c1ccccc12 | 1.46 µM [falling, full curve] | –
50 | Cc1ccc(Cn2cccc(C(=O)Nc3cc(C)on3)c2=O)cc1 | – | 2.82 µM [rising, full curve, poor fit]
51 | O=[As](O)(O)c1ccc(N=Nc2ccc(O)cc2)cc1 | 35.5 µM [falling, single point] | –
52 | CN1CCN(c2nc(N)c(Br)c(Cl)n2)CC1 | 25.1 µM [rising, single point] | –
53 | O=C(CCN1C(=O)/C(=C/c2ccc(F)cc2)SC1=S)NCCc1cnc[nH]1 | 11.2 µM [falling, partial curve] | –
54 | COc1cc(C)c(CNCCc2c[nH]c3ccccc23)cc1C | 11.2 µM [falling, partial curve] | –
55 | Fc1ccc(Cn2nnnc2CN2CCC(n3nnc4cc(C(F)(F)F)ccc43)CC2)cc1 | 1 µM [falling, partial curve, poor fit] | –
56 | O=[N+]([O-])c1ccc2c(c1)C(c1ccccc1)=NCCN2 | 35.5 µM [falling, single point] | –
57 | CCOC(=O)c1cc2c(cn1)[nH]c1ccccc12 | 12.6 µM [falling, partial curve, poor fit] | –
58 | CCC(=NCCc1c[nH]c2ccccc12)c1c(O)n(C)c(=O)n(C)c1=O | 3.26 µM [rising, single point] | –
59 | COC(=O)N(c1ccc(OC)cc1)P1(=S)OCCC(C)O1 (centres undefined) | 5.8 µM [rising, full curve, poor fit] | –
60 | CC(C(=O)c1ccc2ccccc2c1)N1CCCCC1 (centres undefined) | 5.01 µM [rising, full curve, poor fit] | –
61 | CC(C)CC(NS(=O)(=O)c1ccc2c(c1)oc(=O)n2C)C(=O)NCc1cccnc1 (centres undefined) | 1.84 µM [rising, single point] | –
62 | O=C1NC(=O)C(=Cc2coc3ccccc3c2=O)C(=O)N1 | 22.4 µM [falling, partial curve] | –

Looked up by compound from above (three):
Row | SMILES | AC50 [1] | AC50 [2]
57 | CCOC(=O)c1cc2c(cn1)[nH]c1ccccc12 | 12.6 µM [falling, partial curve, poor fit] | –
53 | O=C(CCN1C(=O)/C(=C/c2ccc(F)cc2)SC1=S)NCCc1cnc[nH]1 | 11.2 µM [falling, partial curve] | –
24 | C=CCN(CC=C)Cc1c[nH]c2ccccc12 | 35.5 µM [falling, single point] | –
